From patent US6589974B1, “Pyrazolyl benzyl ether derivatives containing a fluoromethoxyimino group and use thereof as pesticides” (Bayer Aktiengesellschaft, priority 1999, dated 2003)
Some of these results come from one statement about several compounds together.

Tested on: Pyricularia oryzae
Assay type: in vivo
Conditions: rice, protective, application rate 125 g/ha, evaluation 7 days after inoculation

COC(=O)C(=NOCF)c1ccccc1COc1ccn(-c2ccc(Cl)cc2)n1 [Example 1, methyl 2-[2-({[1-(4-chlorophenyl)-1H-pyrazol-3-yl]oxy}methyl)phenyl]-2-[(fluoromethoxy)imino]acetate]
efficacy: ≥ 60%

CNC(=O)C(=NOCF)c1ccccc1COc1ccn(-c2ccc(Cl)cc2)n1 [Example 2, 2-[2-({[1-(4-chlorophenyl)-1H-pyrazol-3-yl]oxy}methyl)phenyl]-2-[(fluoromethoxy)imino]-N-methylacetamide]
efficacy: ≥ 60%
